The values below come from publication PMC11989279.

Sequences of proteins named here, by UniProt entry; tags and fusion partners are left off. A change or cut given only in a name is not applied to a line headed by its entry.
UniProt P63010: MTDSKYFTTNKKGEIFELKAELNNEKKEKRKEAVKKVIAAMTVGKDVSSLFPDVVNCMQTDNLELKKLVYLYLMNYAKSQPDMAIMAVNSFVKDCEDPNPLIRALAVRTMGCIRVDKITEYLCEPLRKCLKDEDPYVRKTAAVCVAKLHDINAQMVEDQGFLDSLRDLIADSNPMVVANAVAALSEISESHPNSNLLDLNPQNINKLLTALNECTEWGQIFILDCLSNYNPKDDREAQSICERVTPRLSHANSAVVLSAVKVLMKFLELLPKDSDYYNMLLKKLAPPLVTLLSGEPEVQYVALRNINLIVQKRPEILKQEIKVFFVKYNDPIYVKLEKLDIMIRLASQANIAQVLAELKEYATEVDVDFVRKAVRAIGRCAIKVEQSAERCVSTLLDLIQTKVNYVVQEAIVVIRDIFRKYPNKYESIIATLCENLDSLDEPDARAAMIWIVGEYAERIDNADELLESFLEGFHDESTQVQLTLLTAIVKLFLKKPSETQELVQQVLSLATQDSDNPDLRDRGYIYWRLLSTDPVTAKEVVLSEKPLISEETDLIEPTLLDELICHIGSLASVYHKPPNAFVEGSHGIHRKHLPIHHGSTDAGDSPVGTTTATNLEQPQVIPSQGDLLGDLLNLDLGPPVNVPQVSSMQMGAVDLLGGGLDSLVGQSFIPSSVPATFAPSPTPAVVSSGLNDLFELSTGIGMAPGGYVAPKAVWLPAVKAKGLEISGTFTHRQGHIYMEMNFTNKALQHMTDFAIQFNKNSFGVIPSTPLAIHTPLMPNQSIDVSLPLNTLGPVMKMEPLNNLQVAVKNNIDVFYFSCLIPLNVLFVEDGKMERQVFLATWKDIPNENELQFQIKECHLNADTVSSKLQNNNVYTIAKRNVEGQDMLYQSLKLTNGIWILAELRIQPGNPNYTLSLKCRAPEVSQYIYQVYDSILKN
UniProt P25098: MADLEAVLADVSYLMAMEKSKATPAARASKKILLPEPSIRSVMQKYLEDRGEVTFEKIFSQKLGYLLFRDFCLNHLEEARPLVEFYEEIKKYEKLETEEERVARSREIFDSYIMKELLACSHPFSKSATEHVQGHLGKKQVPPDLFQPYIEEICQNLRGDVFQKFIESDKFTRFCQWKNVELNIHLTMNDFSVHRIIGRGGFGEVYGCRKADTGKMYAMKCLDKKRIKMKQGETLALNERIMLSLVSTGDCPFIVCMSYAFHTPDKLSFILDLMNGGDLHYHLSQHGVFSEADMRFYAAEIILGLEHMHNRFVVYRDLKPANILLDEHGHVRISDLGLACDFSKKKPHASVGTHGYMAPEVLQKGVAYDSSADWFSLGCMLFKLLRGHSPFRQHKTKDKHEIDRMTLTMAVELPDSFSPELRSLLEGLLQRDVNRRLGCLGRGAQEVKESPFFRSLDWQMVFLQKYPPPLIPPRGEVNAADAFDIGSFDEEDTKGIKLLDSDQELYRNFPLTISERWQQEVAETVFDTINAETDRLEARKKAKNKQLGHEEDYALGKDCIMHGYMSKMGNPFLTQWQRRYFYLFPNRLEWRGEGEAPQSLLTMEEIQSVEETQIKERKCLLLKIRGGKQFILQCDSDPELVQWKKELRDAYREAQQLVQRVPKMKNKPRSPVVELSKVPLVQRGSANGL

Results are given in words; binding and its absence hold for the method and conditions named. Binding seen in cells or lysates may run through a third protein.

This assay addresses FLAG-tagged β2 adaptin (β2 subunit of adaptor protein complex 2) (UniProt P63010). The assay is described as follows: co-IP; HEK-293 cells transfected with D2R and the FLAG-tagged bait, treated with vehicle or 10 μM DA (2 min; 2 and 5 min in Figure 8B); RIPA lysates, agarose beads with antibodies against FLAG 2–3 h at 4 °C; immunoblot of the co-precipitate. Background: Immunoblotting shows a protein as a band on a membrane.

Turning to “4KR-GRK2, untagged (GRK2 mutant lacking the Mdm2-mediated ubiquitination sites) (from UniProt P25098) (enzyme)”, the binding entry was “no binding”.
